In PubChem BioAssay AID2685 (National Center for Advancing Translational Sciences (NCATS), 2010):
Some of the results follow. These are further read-outs of the screen, such as a control signal, another cell line or another target. No call is given for them. Most of these compounds were active or inconclusive in the main read-out, so they are no random draw. Potencies come from curve fits of mixed quality, noted in brackets.

Assay: qHTS Assay for Lipid Storage Modulators in Drosophila S3 Cells;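 for cell number change: cells counted by Cell Tracker Red CMTPX staining in the red channel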
Details: BODIPY lipid droplet fluorescence, 18-24 h; for cell number change: measured here: cell count max response, cells fed with added oleic acid
How it was run: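 Drosophila S3 cells loaded with oleic acid (400 uM, as added) and compounds at several concentrations; lipid droplets imaged by 488-nm laser-scanning cytometry, 500–530 nm intensity and object ratio to cell channel. Percent activity normalized to 20 uM Triacsin C.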

[1] = measured here: cell number channel AC50, cells fed with added oleic acid
[2] = measured here: lipid fluorescence (Fed channel) AC50, cells fed with added oleic acid

Compound | cell number change [%] | AC50 [1] | AC50 [2]
CCC(=O)NC(=S)Nc1ccc(OC)cc1OC | 82.9 | 0.116 µM [rising, full curve, poor fit] | –
O=C1C=C(NNC(=O)c2ccncc2)CC(c2ccccc2)C1 (centres undefined) | 60.2 | – | –
COc1ccc(Cl)cc1Nc1nc(-c2sc(NC(=O)CC(C)C)nc2C)cs1 | -49.9 | 29.1 µM [falling, single point] | 2.59 µM [falling, full curve, poor fit]
CCOC(=O)Cc1csc2nc(-c3ccccc3)nn12 | – | 0.103 µM [rising, partial curve, poor fit] | –
CCN(CC)S(=O)(=O)c1cccc(N=NC2=C(O)CCCC2=O)c1 | 19.1 | – | 0.291 µM [falling, partial curve, poor fit]
O=[N+]([O-])c1ccc(-c2nn(-c3ccccc3)cc2/C=N/n2c(-c3ccncc3)n[nH]c2=S)cc1 | -30.5 | 5.8 µM [falling, full curve, poor fit] | –
COc1ccc(NS(=O)(=O)c2ccc3nc(COc4ccc(Cl)c(C)c4)[nH]c3c2)cc1 | -53.8 | 14.6 µM [falling, partial curve] | 14.6 µM [falling, partial curve]
CCCCc1ccc(NC(=O)CSc2nnc(C)c(=O)n2N)cc1 | -67 | 14.6 µM [falling, partial curve] | 29.1 µM [falling, single point]
CC(=O)Nc1ccc(S(=O)(=O)N2CCC(C(=O)NCc3ccco3)CC2)cc1 | -9.63 | – | 29.1 µM [rising, single point]
Cc1cc(NC(=O)CSc2nc3cc4c(cc3c(=O)n2CCc2ccccc2)OCO4)no1 | 11.8 | – | 0.326 µM [rising, partial curve, poor fit]
COCC(=O)N1CCC(Oc2ccc(C(=O)NC(C)c3nc(C)sc3C)cc2)CC1 (centres undefined) | 23.6 | – | 0.00461 µM [rising, full curve, poor fit]
Cc1cc(C)n2nc(C(=O)N(C)c3c(N)n(Cc4ccccc4)c(=O)[nH]c3=O)nc2n1 | – | – | 23.1 µM [falling, partial curve, poor fit]
CCn1c(=O)cc(OCC(=O)NCCc2ccc(OC)c(OC)c2)c2ccccc21 | 47.2 | – | 0.651 µM [rising, full curve]
Nc1c(C(=O)Nc2ccccc2)nnn1-c1ccc2c(c1)OCCO2 | – | – | 8.2 µM [rising, partial curve, poor fit]
CCOc1ccccc1N1CCN(Cc2ccc(OC)c(OC)c2)CC1 | 1.08 | – | 0.058 µM [falling, full curve, poor fit]
Cc1c(C(=O)N2CCC(C)CC2)oc2ccc3c(c12)C(O)CC1(CCCCC1)O3 (centres undefined) | -63.1 | 29.1 µM [falling, single point] | –
COc1ccc(C2C3CCCCC3(O)CCN2C(=O)c2cccs2)cc1 (centres undefined) | – | 0.651 µM [rising, single point] | –
COc1ccc(-c2oc(/N=C/N3CCOCC3)c(C#N)c2-c2ccc(OC)cc2)cc1 | -7.46 | – | –
CCC(C)(c1nnnn1-c1c(C)cccc1C)N(N=O)c1cccc(C(F)(F)F)c1 (centres undefined) | 3.48 | – | 0.326 µM [rising, full curve, poor fit]
CN1C(C(=O)NCc2ccco2)CC2Cn3c(nc4ccccc43)C21 (centres undefined) | 6.67 | – | 4.11 µM [rising, full curve, poor fit]
Cc1cccc(OCC(=O)N2CCN(c3nnc(-c4ccccc4)c4ccccc34)CC2)c1 | 27.7 | – | 23.1 µM [rising, single point]
O=C(Nc1cccnc1)c1cccc(-c2cc3ccccc3oc2=O)c1 | -48 | 29.1 µM [falling, single point] | 29.1 µM [falling, single point]
Cc1onc(-c2c(F)cccc2Cl)c1C(=O)OCC(=O)NC1CC1 | -14.9 | 0.291 µM [falling, partial curve, poor fit] | 0.206 µM [falling, full curve, poor fit]
CCc1nc(N)c(C#N)c(-c2ccncc2)c1C | -1.47 | – | 18.4 µM [rising, single point]
COc1ccc(S(=O)(=O)N(CCc2ccccc2)CC(=O)N2CCOCC2)cc1 | -9.96 | 5.17 µM [rising, single point] | 3.66 µM [rising, partial curve]
CCc1cc(=O)oc2c(C)c(OCC(=O)N3CCCc4ccccc43)ccc12 | 5.96 | – | 5.17 µM [rising, partial curve]
CCOc1ccc(NC(=O)c2cc3ccccc3cc2O)cc1 | -51.3 | 8.2 µM [falling, partial curve, poor fit] | 23.1 µM [falling, partial curve]
CCCCN1CC(=O)N2[C@H]3c4ccccc4OC[C@@H]3[C@H](c3ccccc3)[C@]2(C)C1=O | 0.452 | – | 0.184 µM [rising, full curve]

No new results follow: an excerpt of the list.
Compound | cell number change [%] | AC50 [1] | AC50 [2]
COc1ccc(Cl)cc1Nc1nc(-c2sc(NC(=O)CC(C)C)nc2C)cs1 | -49.9 | 29.1 µM [falling, single point] | 2.59 µM [falling, full curve, poor fit]
CCOC(=O)Cc1csc2nc(-c3ccccc3)nn12 | – | 0.103 µM [rising, partial curve, poor fit] | –
CCN(CC)S(=O)(=O)c1cccc(N=NC2=C(O)CCCC2=O)c1 | 19.1 | – | 0.291 µM [falling, partial curve, poor fit]
O=[N+]([O-])c1ccc(-c2nn(-c3ccccc3)cc2/C=N/n2c(-c3ccncc3)n[nH]c2=S)cc1 | -30.5 | 5.8 µM [falling, full curve, poor fit] | –
COc1ccc(NS(=O)(=O)c2ccc3nc(COc4ccc(Cl)c(C)c4)[nH]c3c2)cc1 | -53.8 | 14.6 µM [falling, partial curve] | 14.6 µM [falling, partial curve]
CCCCc1ccc(NC(=O)CSc2nnc(C)c(=O)n2N)cc1 | -67 | 14.6 µM [falling, partial curve] | 29.1 µM [falling, single point]
CC(=O)Nc1ccc(S(=O)(=O)N2CCC(C(=O)NCc3ccco3)CC2)cc1 | -9.63 | – | 29.1 µM [rising, single point]
Cc1cc(NC(=O)CSc2nc3cc4c(cc3c(=O)n2CCc2ccccc2)OCO4)no1 | 11.8 | – | 0.326 µM [rising, partial curve, poor fit]
COCC(=O)N1CCC(Oc2ccc(C(=O)NC(C)c3nc(C)sc3C)cc2)CC1 (centres undefined) | 23.6 | – | 0.00461 µM [rising, full curve, poor fit]
Cc1cc(C)n2nc(C(=O)N(C)c3c(N)n(Cc4ccccc4)c(=O)[nH]c3=O)nc2n1 | – | – | 23.1 µM [falling, partial curve, poor fit]
CCn1c(=O)cc(OCC(=O)NCCc2ccc(OC)c(OC)c2)c2ccccc21 | 47.2 | – | 0.651 µM [rising, full curve]
Nc1c(C(=O)Nc2ccccc2)nnn1-c1ccc2c(c1)OCCO2 | – | – | 8.2 µM [rising, partial curve, poor fit]
CCOc1ccccc1N1CCN(Cc2ccc(OC)c(OC)c2)CC1 | 1.08 | – | 0.058 µM [falling, full curve, poor fit]
Cc1c(C(=O)N2CCC(C)CC2)oc2ccc3c(c12)C(O)CC1(CCCCC1)O3 (centres undefined) | -63.1 | 29.1 µM [falling, single point] | –

Additional results follow:

Compound | cell number change [%] | AC50 [1] | AC50 [2]
CCOc1ccc(NC(=O)CNC(=O)c2nn(-c3ccc(OC)c(OC)c3)c(=O)c3ccccc23)cc1 | 184 | 14.6 µM [rising, partial curve] | –
Cc1c(Cl)cccc1NC(=O)Nn1cnnc1 | -0.99 | – | 29.1 µM [rising, single point]
Cc1ccc(CNc2ccc(N3C(=O)CC(C)C3=O)cc2[N+](=O)[O-])cc1 (centres undefined) | -37 | 32.6 µM [falling, single point] | 14.6 µM [falling, partial curve, poor fit]
Cc1ccc(S(=O)(=O)N2CCN(C(=O)c3cc(=O)[nH]c4ccccc34)CC2)c(C)c1 | – | 0.00461 µM [falling, full curve, poor fit] | –
COc1ccc(CNC(=O)c2cc(C)nc3ccccc23)cc1OC | -68.9 | – | –
Cc1nccn1-c1ccc(C=O)cc1 | 16 | – | –
CCOC(=O)c1oc2ccccc2c1N | 21.5 | – | 4.11 µM [falling, full curve]
CC(C)CNS(=O)(=O)c1ccc(OCC(=O)Nc2ccc3c(c2)OCO3)c(Cl)c1 | – | 1.84 µM [rising, partial curve, poor fit] | 3.66 µM [rising, partial curve]
O=C(NCc1ccco1)c1cc2cc3ccc(Cl)cc3nc2o1 | – | 6.51 µM [rising, partial curve, poor fit] | 5.8 µM [rising, single point]
Cc1ccc(-c2nc(C#N)c(N3CCC(C(N)=O)CC3)o2)cc1 | 24.8 | – | 0.58 µM [rising, single point]
Fc1ccc2[nH]c3c(N4CCN(c5ccccc5)CC4)ncnc3c2c1 | -41.9 | 18.4 µM [falling, single point] | –
CCOP(=O)(c1c(F)c(F)c(F)c(F)c1F)C(O)c1ccccc1 (centres undefined) | 11.6 | 0.58 µM [falling, full curve] | 0.58 µM [falling, full curve]
CO/N=C(/CS(=O)(=O)c1ccc(Br)cc1)c1ccc(OC)cc1 | – | 6.51 µM [rising, single point] | 9.2 µM [rising, partial curve]
COc1ccc(-c2[nH]n(-c3ccc([N+](=O)[O-])cc3)c(=O)c2C=NCc2ccncc2)cc1 | 0.952 | – | 16.4 µM [rising, single point]
COc1ccccc1N1CCN(C(=O)CSc2ncnc3c2cnn3-c2ccc(C)c(C)c2)CC1 | 10.7 | – | 0.731 µM [rising, full curve]
Cc1csc(SCC(=O)c2c(N)n(CC(C)C)c(=O)n(C)c2=O)n1 | – | 1.3 µM [rising, partial curve] | 2.06 µM [rising, partial curve]
Cc1ccc(C(=O)NC2CCN(CC(=O)Nc3cccc([N+](=O)[O-])c3)CC2)cc1 | 3.68 | – | 1.64 µM [rising, partial curve, poor fit]
CC(Sc1nc(-c2ccccc2)cc(C(F)(F)F)n1)C(=O)O (centres undefined) | 18.3 | – | 0.146 µM [rising, full curve, poor fit]
Cc1ccc(OCC(O)CN2C(=O)NC(C)(C)C2=O)c(C)c1 (centres undefined) | 7.76 | – | 0.0651 µM [falling, full curve, poor fit]
CCOc1ccc(NC(=O)CC2C(=O)N(c3ccccc3)C(=O)N2CCOC)cc1 (centres undefined) | 33.7 | 1.3 µM [rising, full curve, poor fit] | 3.26 µM [rising, full curve]
COc1ccccc1NC(=O)Nc1nc(CC(=O)Nc2cc(F)ccc2F)cs1 | – | – | 6.51 µM [falling, single point]
O=C(CCC(=O)Nc1ccc(F)cc1)N/N=C/c1ccc(F)cc1 | -6.38 | – | 0.00411 µM [rising, full curve, poor fit]
COc1ccc(-n2cc(-c3ccccc3)c3c(=S)nc[nH]c32)cc1 | 16.1 | – | –
O=[N+]([O-])c1ccc(OCCn2cnc3ccccc32)cc1 | 20.8 | – | –
CCOc1cc(/C=N/N=C2/NC(=O)C(CC(=O)O)S2)ccc1OCc1ccc(Cl)cc1 (centres undefined) | 10.3 | 6.51 µM [rising, partial curve, poor fit] | 0.00517 µM [rising, full curve, poor fit]
O=C(COC(=O)c1ccc(Cl)nc1)Nc1ncc(Cl)cc1Cl | 33.2 | 29.1 µM [rising, single point] | –
CN(C(=O)COC(=O)c1ccc(=O)n(Cc2ccccc2)n1)C1CCCCC1 | 0.13 | – | 29.1 µM [rising, single point]
